Measured values from paper PMC7324161.
These are yes or no findings as the source states them, for the method shown. Binding seen in cells or lysates may run through a third protein. Some entries that bind do so weakly or less than the wild type.

Amino acid sequences for entries named in this document (tags omitted). A change or cut given only in a name is not applied to a line headed by its entry.
UniProt Q8N6T7: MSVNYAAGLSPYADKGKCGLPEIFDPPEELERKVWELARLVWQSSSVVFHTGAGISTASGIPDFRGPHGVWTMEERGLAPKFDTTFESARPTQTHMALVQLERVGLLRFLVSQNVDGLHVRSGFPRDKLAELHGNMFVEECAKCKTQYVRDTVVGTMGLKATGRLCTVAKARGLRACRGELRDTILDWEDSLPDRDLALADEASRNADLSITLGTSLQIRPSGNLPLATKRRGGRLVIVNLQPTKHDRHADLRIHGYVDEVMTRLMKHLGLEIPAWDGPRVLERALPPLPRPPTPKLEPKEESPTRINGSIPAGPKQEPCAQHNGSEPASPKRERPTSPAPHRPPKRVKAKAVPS

Target: HA-SIRT6 (human) (UniProt Q8N6T7)
Assay: co-IP; HEK293 cells co-overexpressing HA-SIRT6 and FLAG-tagged SIRT6 (WT or mutants) or FLAG-SIRT3; anti-HA immunoprecipitates blotted for FLAG

| binding | Substance |
| --- | --- |
| binds | FLAG-SIRT6 K33R (from UniProt Q8N6T7 1-355) |
| binds | FLAG-SIRT6 (from UniProt Q8N6T7 1-355) |
